Results taken from paper doi:10.1101/2021.09.14.460295.
Results are given in words; binding and its absence hold for the method and conditions named. In cells and extracts the contact can be indirect.

Sequences of proteins named here, by UniProt entry; tags and fusion partners are left off. Residues count along the entry.
UniProt P11021, residues 19-654: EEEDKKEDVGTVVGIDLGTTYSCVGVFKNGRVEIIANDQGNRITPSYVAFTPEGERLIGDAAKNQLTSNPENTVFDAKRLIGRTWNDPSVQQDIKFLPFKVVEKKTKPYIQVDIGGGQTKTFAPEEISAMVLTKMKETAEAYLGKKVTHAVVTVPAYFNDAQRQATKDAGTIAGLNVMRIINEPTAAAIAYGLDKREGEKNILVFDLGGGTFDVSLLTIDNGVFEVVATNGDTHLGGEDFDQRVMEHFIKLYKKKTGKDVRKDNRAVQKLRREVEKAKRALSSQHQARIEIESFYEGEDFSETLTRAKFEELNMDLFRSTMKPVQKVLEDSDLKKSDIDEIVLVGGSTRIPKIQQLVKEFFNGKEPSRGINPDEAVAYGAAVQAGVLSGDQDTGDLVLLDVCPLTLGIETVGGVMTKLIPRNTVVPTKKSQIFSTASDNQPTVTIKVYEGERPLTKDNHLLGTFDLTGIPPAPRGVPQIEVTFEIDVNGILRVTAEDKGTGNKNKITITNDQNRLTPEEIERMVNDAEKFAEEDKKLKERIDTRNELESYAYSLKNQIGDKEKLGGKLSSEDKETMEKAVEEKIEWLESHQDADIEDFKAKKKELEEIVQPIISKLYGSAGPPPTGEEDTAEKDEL
UniProt P02545, residues 1-646: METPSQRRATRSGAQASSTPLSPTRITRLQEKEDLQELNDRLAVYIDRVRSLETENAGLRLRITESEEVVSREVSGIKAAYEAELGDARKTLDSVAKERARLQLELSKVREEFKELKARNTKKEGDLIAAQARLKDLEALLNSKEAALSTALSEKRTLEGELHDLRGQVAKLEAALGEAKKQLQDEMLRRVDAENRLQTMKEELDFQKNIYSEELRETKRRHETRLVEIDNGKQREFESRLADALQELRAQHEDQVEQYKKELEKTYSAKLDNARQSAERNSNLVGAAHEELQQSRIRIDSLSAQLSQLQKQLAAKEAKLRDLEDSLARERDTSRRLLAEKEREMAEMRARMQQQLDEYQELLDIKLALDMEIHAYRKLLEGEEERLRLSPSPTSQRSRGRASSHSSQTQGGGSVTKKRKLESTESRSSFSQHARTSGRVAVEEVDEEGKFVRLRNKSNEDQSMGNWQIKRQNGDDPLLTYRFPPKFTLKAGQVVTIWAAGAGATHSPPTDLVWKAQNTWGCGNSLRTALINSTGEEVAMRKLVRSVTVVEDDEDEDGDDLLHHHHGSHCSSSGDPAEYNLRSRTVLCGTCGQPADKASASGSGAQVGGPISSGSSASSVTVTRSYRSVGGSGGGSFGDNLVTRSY

Biological target: GRP78/BiP (78-kDa glucose-regulated protein) (human (endogenous in hTERT-immortalized dermal fibroblasts)) (UniProt P11021)
Test: co-IP

GFP-lamin A (from UniProt P02545 1-646)
binding: no binding
